Taken from: PubChem BioAssay AID1259308 (NCATS, 2017)
Assay: 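Knock-downs that increase output of a recombinant reporter protein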 (primary screen). System: human HEK293 embryonic kidney cells stably expressing firefly luciferase (HEK-CMV-Luc2-Hygro). Reagent: single siRNA against human genes, 0.8 pmol siRNA per well. Duration: 72 h. Measurement: 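Luciferase light (ONE-Glo) measured on one replicate plate set and viability (CellTiter-Glo) on the other, scaled to a negative control siRNA, with robust z-scores and luciferase per cell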. Direction: total luciferase, z-score: higher = more reporter protein produced. Hit rule: 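Active when the median/MAD z-score for overall luciferase is greater than 3; a gene was taken forward for validation with new siRNAs if at least two of its three siRNAs passed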. Calls: active = raised luciferase; inactive = no rise.
The whole screen tested about 59,000 reagents; below is a part drawn at random. In the full data, about 1,510 (2.6%) are marked active. 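Calls use total luciferase alone and ignore viability, so some active siRNAs may act by altering cell number.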 Unmarked entries are inactive. The numbers tell different reagents against one gene apart. Further read-outs or replicates are left out here.

Gene	siRNA no.	total luciferase, z-score
NSUN5 (GeneID 55695)	1	-0.165
NSUN5 (GeneID 55695)	2	0.0183
NSUN5 (GeneID 55695)	3	0.325
GYPE (GeneID 2996)	1	-0.889
GYPE (GeneID 2996)	2	0.439
GYPE (GeneID 2996)	3	-0.404
LRRC37A (GeneID 9884)	1	2.15
LRRC37A (GeneID 9884)	2	-0.472
LRRC37A (GeneID 9884)	3	0.305
EPO (GeneID 2056)	1	-0.519
EPO (GeneID 2056)	2	-0.515
EPO (GeneID 2056)	3	0.803
VSX2 (GeneID 338917)	1	-0.0897
VSX2 (GeneID 338917)	2	2.18
VSX2 (GeneID 338917)	3	-0.562
FASTKD5 (GeneID 60493)	1	0.39
FASTKD5 (GeneID 60493)	2	0.153
FASTKD5 (GeneID 60493)	3	-0.319
UQCC4 (GeneID 283951)	1	0.539
UQCC4 (GeneID 283951)	2	-0.177
UQCC4 (GeneID 283951)	3	-0.0736
CYP2F1 (GeneID 1572)	1	-0.276
CYP2F1 (GeneID 1572)	2	1.32
CYP2F1 (GeneID 1572)	3	-0.571
SBF1 (GeneID 6305)	1	-0.99
SBF1 (GeneID 6305)	2	0.826
SBF1 (GeneID 6305)	3	1.59
ZNF215 (GeneID 7762)	1	0.886
ZNF215 (GeneID 7762)	2	-1
ZNF215 (GeneID 7762)	3	-0.0134
TDG (GeneID 6996)	1	2.06
TDG (GeneID 6996)	2	-0.0309
TDG (GeneID 6996)	3	3.08 (active)
ARHGAP29 (GeneID 9411)	1	-0.268
ARHGAP29 (GeneID 9411)	2	-0.392
ARHGAP29 (GeneID 9411)	3	-0.769
HMGN1 (GeneID 3150)	1	-0.221
HMGN1 (GeneID 3150)	2	2.17
HMGN1 (GeneID 3150)	3	-0.164
GLMP (GeneID 112770)	1	1.76
GLMP (GeneID 112770)	2	0.433
GLMP (GeneID 112770)	3	1.36
RTL10 (GeneID 79680)	1	0.797
RTL10 (GeneID 79680)	2	0.272
RTL10 (GeneID 79680)	3	-1.53
ACTBL2 (GeneID 345651)	1	-1.09
ACTBL2 (GeneID 345651)	2	-1.69
ACTBL2 (GeneID 345651)	3	-0.875
ADGRF4 (GeneID 221393)	1	0.114
ADGRF4 (GeneID 221393)	2	-0.334
ADGRF4 (GeneID 221393)	3	0.0456
MYL12BP2 (GeneID 391722)	1	-0.126
MYL12BP2 (GeneID 391722)	2	-0.814
MYL12BP2 (GeneID 391722)	3	0.346
PCID2 (GeneID 55795)	1	-0.436
PCID2 (GeneID 55795)	2	-0.507
PCID2 (GeneID 55795)	3	-0.234

Reformatted: 3 of the entries above.
Gene,siRNA no.,"total luciferase, z-score"
FASTKD5 (GeneID 60493),1,0.39
FASTKD5 (GeneID 60493),2,0.153
FASTKD5 (GeneID 60493),3,-0.319
